# Among all 1,000 compounds or so, fewer than 10 were called active.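 How the source made its calls: active means fitted half-maximal concentration no higher than twice the top valid tested dose, with signal falling; inconclusive means flat curve with 30 to 70% inhibition, or poor fit; inactive means the rest.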 The list shows a part of the results. Measured potencies and affinities stand elsewhere.
# Target: Golgi-associated PDZ and coiled-coil motif-containing protein (Homo sapiens) (UniProt Q9HD26)
# Experiment: CAL PDZ domain peptide-binding inhibitors, dose response, biochemical, fluorescence polarization, untagged CAL PDZ, cherry-pick, set 2 (AID 602254);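 further: 0% = DMSO neutral control and -100% = unlabeled peptide PRC23 positive control; more negative means stronger blocking of peptide binding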
# Conditions: Purified CAL PDZ, TMR peptide fluorescence polarization; at 60 µM (top of the series)
row,Structure (SMILES),"activity change, negative = inhibition"
1,O=C(c1ccc2c(c1)OCO2)C1CCCN(CC2CCCCC2)C1 (stereo unspecified),inactive: 0.484%
2,CC(NC(=O)Cc1cccc2ccccc12)C(=O)N1CCC(=O)CC1 (stereo unspecified),inactive: -0.614%
3,O=C(Nc1ccc(Cl)cc1)OC1CN2CCC1CC2 (stereo unspecified),inactive: -0.582%
4,Cc1ccc(-c2nc3ccccc3c(=O)n2-c2cccc(O)c2)cc1,inactive: 3.18%
5,CNC(=S)N1CCn2cccc2C1c1cccnc1 (stereo unspecified),inactive: 2.59%
6,Cc1ccnc(NC(=O)CCCc2ccc(N(CCCl)CCCl)cc2)n1,inactive: -0.792%
7,N#CCCn1cc(C(=O)NCc2ccccc2)c(-c2ccc3c(c2)OCCO3)n1,inactive: 0.227%
8,CC(C)Oc1cccc(C(=O)C2CCCN(Cc3ccon3)C2)c1 (stereo unspecified),inactive: -0.697%
9,CCc1nc2ccc(N3CCN(C)CC3)cc2nc1CC,inactive: -0.813%
10,CN1CC(C(=O)c2cccc(C(F)(F)F)c2)C(c2ccc(Cl)cc2)C1 (stereo unspecified),inactive: 2.48%
11,CC(=O)N1CCCSC1=Nc1ccccc1,inactive: 1.94%
12,CC(=NCc1cccnc1)c1c(O)n(-c2ccc(Cl)cc2)c(=O)[nH]c1=O,inactive: -1.62%
13,COc1ccc(C(CNC(=O)Cc2ccc(Cl)c(Cl)c2)N2CCCCC2)cc1 (stereo unspecified),inactive: -5.77%
14,CCN(CC)C(=O)c1ccc(NC(=O)CCCSc2ccccc2)cc1,inactive: 0.247%
15,C=CC1CN2CCC1CC2C(OC(C)=O)c1ccnc2ccc(OC)cc12 (stereo unspecified),inactive: 0.064%
16,COc1cccc(CNCCc2ccc(F)cc2)c1,inactive: -0.902%

# Quoted from the listing for reference:
row,Structure (SMILES),"activity change, negative = inhibition"
5,CNC(=S)N1CCn2cccc2C1c1cccnc1 (stereo unspecified),inactive: 2.59%
6,Cc1ccnc(NC(=O)CCCc2ccc(N(CCCl)CCCl)cc2)n1,inactive: -0.792%
